# Data reported in PubChem BioAssay (EPA / NIEHS).
# Inconclusive results, whose numbers are uncertain, are shown with a selection of clear calls. Where the call is inconclusive, the potency comes from a doubtful curve fit. Activity calls are given as the source filed them. The calls were made as follows: active = hit-call score of the fitted dose curve at least 0.9, where 1 is the maximum; inconclusive = response in the unintended direction; inactive = score below 0.9.
# Assay: VALA_MIGHUV1_ScratchOnly_CellCount: Viability Assessment in the VALA Sciences human Umbilical Vein Endothelial Cell Migration (MIGHUV) Assay, Scratch Wound Inhibited Recovery (AID 2284327)
# Method: VALA_MIGHUV1_ScratchOnly is a cell-based, multiplexed assay that uses umbilical vein-derived endothelial cells (HUVEC). Measurements were taken 24 hours after chemical dosing in a 96-well plate.VALA_MIGHUV1_ScratchOnly_CellCount is the one of two assay components measured from the VALA_MIGHUV1_ScratchOnly assay. It is designed to make measurements of viability, a form of viability reporter, as detected with fluorescence intensity signals by HCS Fluorescent Imaging technology. Data from the assay component VALA_MIGHUV1_ScratchOnly_CellCount was analyzed at the endpoint, VALA_MIGHUV1_ScratchOnly_CellCount, in the positive analysis fitting direction relative to DMSO as the negative control and baseline of activity. Using a type of viability reporter, loss-of-signal activity can be used to understand viability. To generalize the intended target to other relatable targets, this assay endpoint is annotated to the cell cycle intended target family, where the subfamily is cell count.
# Cells were seeded on 384-well microplates (day-0) at a density of 9000 cells per well for detection of wound area recovery or 4000 cells per well for detection of beta-catenin (CTNB) immunoreactivity and incubated in Endothelial Cell Growth Medium (CAI, San Diego; catalog 211-500). After 24 hours of culture, the HUVEC plates were scratched using a custom scratch head with the Bravo liquid handling system. This created a 'wound' area without cells in each well. Test chemical was added within 30 min, each tested in 3-replicates across a 6-point concentration response (0.1 % DMSO vehicle control). 'ScratchOnly' Plates were incubated for a 24 h 'wound recovery' period and then fixed with 4% paraformaldehyde. Hoechst dye was used to visualize cell nuclei in the wound area, and CTNB immunofluorescence for visualizing CTNB-positive nuclei (beta-Catenin (L54E2) Mouse mAb (IF Preferred) 2677; Cell Signaling Technology, Danvers, MA). Each HUVEC plate included neutral vehicle control (0.1 % DMSO) treated wells and Cytochalasin D (actin cytoskeletal disrupter) or BIO-acetoxime (synthetic GSK3 inhibitor) as positive reference controls for endothelial migration and nuclear translocation of CTNB, respectively.
Structure (SMILES),AC50,outcome
CC(C)(c1ccc(O)cc1)c1ccc(O)cc1,inconclusive: 81.3 nM,–
CCCc1cc(=O)[nH]c(=S)[nH]1,inconclusive: 1.29 nM,–
O=P(OC(CCl)CCl)(OC(CCl)CCl)OC(CCl)CCl,inconclusive: 3.98 nM,–
Oc1ccc2ccccc2c1N=Nc1ccccc1,–,inactive
CCCCCCCCOC(=O)c1cc(O)c(O)c(O)c1,inconclusive: 22.6 nM,–
O=C(Nc1ccc(Cl)cc1)Nc1ccc(Cl)c(Cl)c1,inconclusive: 10.5 nM,–
Cc1ccc(-c2cc(C(F)(F)F)nn2-c2ccc(S(N)(=O)=O)cc2)cc1,inconclusive: 1.38 nM,–
O=c1c(O)c(-c2ccc(O)c(O)c2)oc2cc(O)cc(O)c12,inconclusive: 18 nM,–
CC(C)CCCCCCc1ccc(O)cc1,inconclusive: 3.68 nM,–
N[C@@H](Cc1cc(I)c(Oc2ccc(O)c(I)c2)c(I)c1)C(=O)O,inconclusive: 11.9 nM,–
COC(=O)c1ccc(O)cc1,inconclusive: 28.2 nM,–
O=C(O)Cc1cc(I)c(Oc2cc(I)c(O)c(I)c2)c(I)c1,inconclusive: 1.29 nM,–

# Given as tab-separated lines: entries from further up.
Structure (SMILES)	AC50	outcome
Cc1ccc(-c2cc(C(F)(F)F)nn2-c2ccc(S(N)(=O)=O)cc2)cc1	inconclusive: 1.38 nM	–
O=c1c(O)c(-c2ccc(O)c(O)c2)oc2cc(O)cc(O)c12	inconclusive: 18 nM	–
O=C(O)Cc1cc(I)c(Oc2cc(I)c(O)c(I)c2)c(I)c1	inconclusive: 1.29 nM	–
